Assay results reported in patent publication US20100292147A1 (UNIVERSITY OF UTAH RESEARCH FOUNDATION, published 2010).
These are yes or no findings as the source states them, for the method shown. Some results given as binding are weak or reduced against the parent protein; the word gives no strength.

Experiments:
[1] = target: T1, HBD wt peptide (hepcidin binding domain of ferroportin with two arginines at each end); test: binding to bead-immobilized HBD
T1 sequence (peptide): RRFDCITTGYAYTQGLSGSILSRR

[2] = target: T1, HBD wt peptide (hepcidin binding domain of ferroportin with two arginines at each end); test: binding to bead-immobilized HBD at different temperatures
[3] = target: T1, HBD wt peptide (hepcidin binding domain of ferroportin with two arginines at each end); test: competition on I-HBD bound in wells of a 96-well plate (FIG. 7A legend)
[4] = target: T2, HBD peptide without the added arginines; test: comparison of HBD with and without terminal arginines; method not described
T2 sequence (peptide): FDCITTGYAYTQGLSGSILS

[5] = target: T1, HBD wt peptide (hepcidin binding domain of ferroportin with two arginines at each end); test: preincubation with HBD, read out by Fpn-GFP internalization (FIG. 1C legend)
[6] = target: T1, HBD wt peptide (hepcidin binding domain of ferroportin with two arginines at each end); test: competition with I125-labeled hepcidin (10,000 cpm) on HBD-coated 96-well plate, 4 h room temperature, gamma counter (FIG. 7)

Measured: binding

B1: hepcidin (hepcidin 25, native non-radioactive hepcidin) (peptide, UniProt P81172 60-84, looked up)
peptide: DTHFPICIFCCGCCHRSKCGMCCKT
binds: all assays above
